Assay results published in the supplement of paper PMC6411743.
± gives the standard deviation of the averaged measurements. This is one part of the list.

Biological target: T1, E9PNW4 and related entries (UniProt P13987)
T1 sequence (whole entry): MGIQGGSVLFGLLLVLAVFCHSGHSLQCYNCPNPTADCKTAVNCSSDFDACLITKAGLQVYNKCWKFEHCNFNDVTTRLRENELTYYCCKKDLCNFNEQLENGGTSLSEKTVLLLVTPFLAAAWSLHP
Assay: NP40-soluble protein abundance relative to vehicle (solubility fold change) (ratio); higher = more soluble protein in presence of GTP
Description: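 Solubility proteome profiling in Jurkat crude lysate. Lysate was treated with Mg-GTP (0.1-10 mM) for 10 min at room temperature and 3 min at 37 °C, then solubilised with 0.8% NP40 and benzonase, followed by ultracentrifugation. Proteins were quantified by TMT10 LC-MS/MS; the value is the NP40-soluble abundance relative to the NP40-processed vehicle, from 3 independent experiments.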

Nc1nc2c(ncn2[C@@H]2O[C@H](COP(=O)(O)OP(=O)(O)OP(=O)(O)O)[C@@H](O)[C@H]2O)c(=O)[nH]1 [guanosine triphosphate]
NP40-soluble protein abundance (concentration: 0.1mM): 0.823 ± 0.18 | NP40-soluble protein abundance (concentration: 0.5mM): 0.829 ± 0.19 | NP40-soluble protein abundance (concentration: 1mM): 0.834 ± 0.16 | NP40-soluble protein abundance (concentration: 2mM): 0.825 ± 0.15 | NP40-soluble protein abundance (concentration: 4mM): 0.875 ± 0.2 | NP40-soluble protein abundance (concentration: 6mM): 0.871 ± 0.21 | NP40-soluble protein abundance (concentration: 8mM): 0.825 ± 0.15 | NP40-soluble protein abundance (concentration: 10mM): 0.9 ± 0.2
